Our source for the binding values is patent US20240209089A1.

By UniProt entry, the sequences of proteins in these tests, tags left out. Residues count along the entry.
UniProt P01732, residues 22-182: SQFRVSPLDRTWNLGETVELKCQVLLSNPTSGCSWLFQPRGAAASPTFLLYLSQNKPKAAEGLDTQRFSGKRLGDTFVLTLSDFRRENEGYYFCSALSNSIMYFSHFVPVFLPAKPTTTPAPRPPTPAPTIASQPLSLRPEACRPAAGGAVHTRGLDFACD

The assay concerns the target CD8α-cHis fusion protein (UniProt P01732). The assay is described as follows: BLI (ForteBio Octet), biotinylated antibody on SA sensor.

No constants are given. Whether binding was seen depends on the method and setting. Some entries that bind do so weakly or less than the wild type. Where a sequence is shown, tags or fusion partners need not be part of it.

B1: C37-cHis antibody (VHH)
VHH: QLQLVESGGGLVQAGGSLRLSCAASGLTFEDYAIGWFRQAPGKEREGISCIRIYDGNTYSAESVKGRFTISSDNAKNQVYLQINTLKPEDTAVYYCAAGSYYSCSVYPDYDMDYWGKGTLVTVSS
Consider B1, for which the binding entry was “binds”.
